From article PMC4012464 (Marine Drugs, 2014)
Non-standard residues stand in square brackets, D forms with d. *: point of attachment. dNMeF = CN[C@H](Cc1ccccc1)C(=O)O; Boc = CC(C)(C)OC(=O)*

experiment: peptide synthesis; settings: coupling step

Q: Which step yield does the source give for HO-Hmp-Leu-D-Gln-Ile-Gly-D-Phe-NH-Bn here?
A: 32%

Q: For “HO-Hmp-Leu-D-Gln-Ile-Gly-N-Me-D-Phe-NH-Bn”, which step yield is on record?
A: 75%

Q: Which step yield does the source give for “HO-Hmp-Leu-N-Me-Ala-Ile-Gly-N-Me-D-Phe-NH-Bn” here?
A: 63%

Q: For “HO-Hmp-Leu-N-Me-D-Gln-Ile-Gly-D-Phe-NH-Bn”, which step yield is on record?
A: 35%

Q: With “HO-Hmp-Leu-N-Me-D-Gln-Ile-Gly-N-Me-D-Phe-NH-Bn” as the substance, how does the step yield read?
A: 77%

Q: With “HO-Hmp-Leu-N-Me-D-Gln-Ile-Gly-N-Me-D-Phe-NH-MTC” as the substance, how does the step yield read?
A: 67%

Q: For “HO-Hmp-Leu-N-Me-D-Gln-Ile-Gly-N-Me-D-Phe-NH-Ph”, which step yield is on record?
A: 67%

Q: With “HO-Hmp-Leu-N-Me-D-Gln-Ile-Gly-N-Me-D-Phe-NH-TIQ” as the substance, how does the step yield read?
A: 59%

Q: Which step yield does the source give for “HO-Hmp-Leu-N-Me-Gln-Ile-Gly-N-Me-D-Phe-NH-Bn” here?
A: 63%

Q: Which step yield does the source give for “HO-Hmp-Leu-N-Me-Gln-Ile-Gly-N-Me-D-Phe-NH-MTC” here?
A: 60%

Q: With “HO-Hmp-Leu-N-Me-Gln-Ile-Gly-N-Me-D-Phe-NH-Ph” as the substance, how does the step yield read?
A: 75%

Q: With “HO-Hmp-Leu-N-Me-Gln-Ile-Gly-N-Me-D-Phe-NH-TIQ” as the substance, how does the step yield read?
A: 60%

same assay, conditions: late stage modification step

Q: Which step yield does the source give for “N,N-Me2-D-Gln-Ile-Gly-N-Me-D-Phe-Pro-OMe” here?
A: 97%

experiment: general procedure: solution-phase peptide synthesis; EDC/HOAt; settings: coupling step

Q: Which step yield does the source give for Boc-IG[dNMeF]P-OMe here?
A: 73%

Q: Which step yield does the source give for HO-Hmp-Leu-N-Me-D-Gln-Ile-Gly-OBn here?
A: 60%

Q: Which step yield does the source give for HO-Hmp-Leu-N-Me-D-Gln-Ile-OBn here?
A: 85%

Q: Which step yield does the source give for N,N-Me2-Ile-Gly-N-Me-D-Phe-Pro-OMe here?
A: 24%
